Laboratory results: PubChem BioAssay AID1347426 (Functional Genomics Laboratory (NCATS/FGL), 2020)
Among all 31,000 sequences or so, about 1,400 (4.5%) were called active.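 The calls were made as follows: active = median seed-adjusted z-score above 1 or below -1; inactive = the rest.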 The list shows a part of the results.

Assay: Novel Modifiers of Survival Motor Neuron (SMN) Protein: Gene Identification via Genome-wide siRNA Screen;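 also: luminescence tracks full-length SMN protein made from the SMN2 reporter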
Conditions: HEK293T SMN2-luciferase reporter, siRNA knockdown, 72 h; actives lie on both sides
Procedure, shortened: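 Genome-wide siRNA screen (10418 genes, 3 siRNAs each, 1 pmol per well) by reverse transfection in HEK293T cells stably carrying an SMN2-luciferase reporter; luminescence after 72 hours, normalized to negative-control siRNA, log10-transformed, MAD-scored.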
With GAUCCUUUUCAUUUCGGAATT against GMPR2 the median seed-adjusted z-score was inactive: 0.232.
In the case of GAAACCUACUUGAUCAUCATT against ZNF23, the median seed-adjusted z-score was inactive: -0.106.
With GCUGCUUCUUUAUUCGGCATT against NCAM2 the median seed-adjusted z-score was inactive: 0.192.
For CACUAACUGAUUUACAAGATT against UBE2J1, the median seed-adjusted z-score was active: -1.2.
With GGAAACUUUGCAAAUGUAATT against ZNF137 the median seed-adjusted z-score was inactive: 0.0526.
With CGGCUACGACGAUUACGAATT against MYO15A the median seed-adjusted z-score was inactive: 0.0508.
For GGGAUGUCCUUAUUGCCCATT against GNS, the median seed-adjusted z-score was inactive: 0.
In the case of GAAGCACAGUAUAUCCGGATT against PCMTD2, the median seed-adjusted z-score was inactive: -0.0765.
With CAAUAUCUACUUAGAAGCATT against GBP7 the median seed-adjusted z-score was inactive: 0.
In the case of GAACAACGCAAAUUUCUGATT against HS6ST2, the median seed-adjusted z-score was inactive: 0.
With CCAGAGAAGUUUGCCCUGATT against SMARCB1 the median seed-adjusted z-score was inactive: 0.05.
For GGUGUAUUCGCCUAUGAAATT against DMPK, the median seed-adjusted z-score was inactive: -0.0417.
For GCAUUGUCCGCUUCACGAATT against HCN4, the median seed-adjusted z-score was inactive: -0.282.
For AGACAUAGAGGACAUUAAATT against GJB6, the median seed-adjusted z-score was inactive: 0.0376.
With GCCCGAUGCUUUCCACAUUTT against SLC5A9 the median seed-adjusted z-score was inactive: 0.15.
In the case of AGAUGCUUCCUAGAGGAAATT against TRIM17, the median seed-adjusted z-score was inactive: 0.574.
In the case of UGAUCUUUAUUCUCCGAAATT against ELOVL1, the median seed-adjusted z-score was inactive: 0.564.
With GUGUAUCUAUGGAAGAGCATT against PSMD4 the median seed-adjusted z-score was active: 1.46.
In the case of CACCACUACUGCACCCGUATT against RGR, the median seed-adjusted z-score was inactive: 0.217.
For AAAGGAUCUCUAUAUCCUATT against CARD16, the median seed-adjusted z-score was inactive: 0.57.
With GCAUGGAGGAUGAUGCUAUTT against SSH1 the median seed-adjusted z-score was inactive: 0.209.
In the case of GAAGUAAGUUUGUUGUAGATT against PGAP1, the median seed-adjusted z-score was inactive: -0.272.
With UCCUAUCAGAAGUUGCAUATT against RKHD4 the median seed-adjusted z-score was inactive: 0.0683.
In the case of GGCAAAAAGCUGACUGAGATT against GPD1, the median seed-adjusted z-score was inactive: 0.558.
In the case of CACCAGAACUUCCCAUUAATT against ALG8, the median seed-adjusted z-score was inactive: -0.0604.
In the case of CCGGCUACACCUUCCGUAATT against DNAJB8, the median seed-adjusted z-score was active: -1.09.
For GCUGGUUUACCAAAACAUATT against GNA14, the median seed-adjusted z-score was inactive: 0.363.
For UAUUCGUUCUGUACAAGGATT against LILRB5, the median seed-adjusted z-score was inactive: 0.834.
In the case of CCAUCACUUUAAUCAAUCATT against ABCA6, the median seed-adjusted z-score was inactive: 0.113.
With GCUCAGAUUAUGUAUUUGATT against MAT2B the median seed-adjusted z-score was inactive: -0.554.
For CUAUGUUUCUAAGAUCAUATT against FAHD1, the median seed-adjusted z-score was inactive: -0.157.
For CAACAAGUUUGACAGUCAATT against CGN, the median seed-adjusted z-score was inactive: 0.33.
In the case of CAGAGACAAUCAUCGACAATT against HMGCS1, the median seed-adjusted z-score was inactive: 0.0596.
With CCCAAUCCCUAUUUGAGAATT against ADRA1D the median seed-adjusted z-score was inactive: -0.18.
With CGACAAACCUGGCGUCUAUTT against KLK8 the median seed-adjusted z-score was inactive: 0.736.
For CUGUCGACCUAGACCAUAATT against PHF20, the median seed-adjusted z-score was inactive: 0.138.
In the case of CGGCAGUGGUUGUAUCAGATT against PRSS16, the median seed-adjusted z-score was inactive: -0.0226.
For GGCCCGGAUAAAAACCAAATT against SPINK4, the median seed-adjusted z-score was inactive: -0.0134.
With ACCUAGAAGUGAACUGUGATT against GP1BA the median seed-adjusted z-score was inactive: 0.0803.
With CGCCCAGAAUUGGUCCAAATT against tAKR the median seed-adjusted z-score was inactive: -0.356.
In the case of GCUAAGUACAAAUCAUUCATT against FCN1, the median seed-adjusted z-score was inactive: 0.346.
For ACACGGUUUUUGCACCAAATT against WTIP, the median seed-adjusted z-score was inactive: 0.222.
With “GAAUGUACAAUGUACCUCUTT against ST6GALNAC5” the median seed-adjusted z-score was inactive: -0.0321.
With CUCUCAGACAAGCUACUGATT against CCL27 the median seed-adjusted z-score was inactive: 0.
For GAUCCGAGCCUACUAUGAATT against C3, the median seed-adjusted z-score was inactive: 0.0281.
In the case of GGCUUUAGACCUCCACCAUTT against EDN3, the median seed-adjusted z-score was inactive: -0.427.
In the case of GGAUAAUGAUCGCGAGGAATT against ALS2, the median seed-adjusted z-score was inactive: 0.
In the case of CAGUUGUCUGGAUCCAUUUTT against BRAF, the median seed-adjusted z-score was inactive: 0.271.
For GCAUCUAUACUCCAAGCGATT against PPP1R16A, the median seed-adjusted z-score was inactive: 0.322.
In the case of AGAACAUUAUCGACAUUUATT against TRIM54, the median seed-adjusted z-score was inactive: -0.219.
In the case of AACCUAUAAUGAGGAUGUATT against ZNRF2, the median seed-adjusted z-score was inactive: 0.
In the case of GCACGCUAUUUUUCUACGATT against TIAM1, the median seed-adjusted z-score was inactive: 0.13.
In the case of GCUCAAGAGCUUGCACAGATT against SLC25A42, the median seed-adjusted z-score was active: -1.02.
With AGAACGUGAGUGACAUUUUTT against POLD2 the median seed-adjusted z-score was inactive: 0.97.
